# Reference: PubChem BioAssay AID652243 (Drosophila RNAi Screening Center, 2013)
# Aim: 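Fly genes required for human androgen receptor driven transcription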 (primary screen)
# Cell system: Drosophila S2R+ cells
# Knock-down reagent: long dsRNA against Drosophila genes
# Time to read-out: 72 h (48 h, then 24 h hormone)
# Challenge: synthetic androgen R1881 at 10 nM for 24 h
# Measurement: 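Per-well raw luminescence of the androgen-driven firefly reporter and of the Renilla control, two replicates each, without normalisation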
# Direction: firefly reporter light: higher = more light from androgen-responsive reporter; Renilla control light: higher = more constitutive control signal (cell number, transfection)
# Active means: 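Across duplicate plates, a knock-down whose log firefly/Renilla ratio shifted a set fold down or up from the GFP/LacZ control mean was a hit; the downward cut appears as both 1.5 and 3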
# Meaning of the calls: active = hit: reporter lowered or raised; inactive = no hit
# The screen tested about 24,000 reagents; shown is an unselected part of those that have a named target and a result. In the full data, 246 (1%) got an active call. 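Plates not normalised; calls are printed but the firefly/Renilla ratio behind them is not deposited; fold cut for lowering reported inconsistently.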 The raw values are shown without normalisation. Names joined by + are all predicted targets of the reagent. Not stated in the record: the amount of reagent.
"firefly reporter light, replicate 1","firefly reporter light, replicate 2","Renilla control light, replicate 1","Renilla control light, replicate 2",call,Gene,PubChem SID
6.28e5,5.18e5,3.62e6,2.93e6,inactive,Rrp47 (GeneID 32558),SID104199916
7.26e5,5.48e5,1.17e6,1.25e6,inactive,Rrp47 (GeneID 32558),SID104204113
8.77e5,7.55e5,1.74e6,1.50e6,inactive,lncRNA:roX1 (GeneID 3772376),SID104201515
4.11e5,4.29e5,6.01e5,5.52e5,inactive,eve (GeneID 36039),SID104203526
2.89e5,2.71e5,3.31e6,2.91e6,inactive,ATPsynbeta (GeneID 43829),SID104196986
1.19e5,1.57e5,1.74e6,2.13e6,inactive,Cpr62Bb (GeneID 38240),SID104188196
2.50e5,2.35e5,6.90e5,8.79e5,inactive,Cpr62Bb (GeneID 38240),SID104206168
1.53e5,1.61e5,1.90e6,1.94e6,inactive,CG1273 (GeneID 38522),SID104188083
4.69e5,5.53e5,3.67e6,4.03e6,inactive,lncRNA:CR32658 (GeneID 3772624),SID104199194
4.23e5,3.69e5,1.11e6,9.52e5,inactive,lncRNA:CR32658 (GeneID 3772624),SID104205404
4.97e5,5.39e5,2.87e6,3.59e6,inactive,CG15544 (GeneID 43655),SID104194874
6.33e5,6.53e5,8.58e5,7.31e5,inactive,CG15544 (GeneID 43655),SID104204230
4.38e5,5.19e5,1.06e6,1.12e6,inactive,Kdm5 (GeneID 33837),SID104182925
2.59e5,2.80e5,9.89e5,9.89e5,inactive,Kdm5 (GeneID 33837),SID104208114
6.92e5,1.03e6,1.84e6,2.83e6,inactive,CG33491 (retired record) + CG33496 (retired record) + CG33487 (retired record) + 1 more,SID104202326
4.35e5,3.87e5,1.42e6,1.53e6,inactive,sunn (GeneID 326196),SID104201346
8.94e5,6.26e5,9.59e5,7.88e5,inactive,Nup50 (GeneID 35784),SID104186619
3.21e5,4.21e5,7.15e5,5.56e5,inactive,Nup50 (GeneID 35784),SID104205014
1.63e5,1.21e5,4.05e5,4.06e5,inactive,msn (GeneID 44030),SID104187782
38856,70910,9.77e5,1.04e6,inactive,msn (GeneID 44030),SID104188290
4.97e5,4.00e5,5.36e5,4.81e5,inactive,msn (GeneID 44030),SID104203734
,,,,inactive,msn (GeneID 44030),SID104214247
,,,,inactive,msn (GeneID 44030),SID104214248
5.24e5,5.47e5,2.72e6,4.11e6,inactive,CG30403 (GeneID 246595),SID104183681
2.33e5,2.50e5,2.54e6,3.51e6,inactive,GluClalpha (GeneID 42350),SID104196472
2.80e5,2.21e5,9.31e5,1.60e6,inactive,CG8997 (GeneID 34799),SID104181692
6.48e5,5.14e5,2.26e6,1.35e6,inactive,CG8997 (GeneID 34799),SID104206546
98338,74448,5.77e5,5.16e5,inactive,CG1628 (GeneID 31990),SID104197901
1.00e6,8.69e5,2.40e6,2.10e6,inactive,CG33777 (GeneID 3772311),SID104216426
87828,1.25e5,1.58e6,1.87e6,inactive,CG6295 (GeneID 43247),SID104195804
6.98e5,9.48e5,7.04e5,8.82e5,inactive,CG6295 (GeneID 43247),SID104203086
1.85e5,1.49e5,6.16e5,5.32e5,inactive,CG33296 (GeneID 2768941),SID104180790
1.01e6,8.07e5,1.30e6,1.30e6,inactive,CG33296 (GeneID 2768941),SID104202912
91290,93117,1.57e6,1.21e6,inactive,Sgt1 (GeneID 40982),SID104196311
5.64e5,4.57e5,1.79e6,1.58e6,inactive,Sgt1 (GeneID 40982),SID104208317
2.04e5,1.95e5,1.23e6,1.16e6,inactive,Gapdh1 (GeneID 35728),SID104187225
5.72e5,5.81e5,7.38e5,6.04e5,inactive,Gapdh1 (GeneID 35728),SID104204290
2.00e5,2.03e5,2.15e6,2.20e6,inactive,Nnp-1 (GeneID 44391),SID104181957
2.93e5,4.66e5,1.08e6,1.18e6,inactive,Nnp-1 (GeneID 44391),SID104208360
2.10e5,2.45e5,1.81e6,2.13e6,inactive,blanks (GeneID 38620),SID104189549
2.09e5,2.07e5,2.64e6,2.63e6,inactive,Acbp3 (GeneID 38783),SID104190814
6.85e5,6.86e5,1.40e6,1.62e6,inactive,Acbp3 (GeneID 38783),SID104203902

Individual results from above.
CG33296 (GeneID 2768941) [SID104202912], firefly reporter light, replicate 1 = 1.01e6
For “firefly reporter light, replicate 2”, Acbp3 (GeneID 38783) [SID104190814] shows 2.07e5
Entry for lncRNA:roX1 (GeneID 3772376) [SID104201515] in “Renilla control light, replicate 2”: 1.50e6
Value of CG8997 (GeneID 34799) [SID104206546] under “Renilla control light, replicate 1”: 2.26e6
Under “firefly reporter light, replicate 1”, CG1628 (GeneID 31990) [SID104197901] reads 98338
Under “firefly reporter light, replicate 2”, sunn (GeneID 326196) [SID104201346] reads 3.87e5

Further results:
"firefly reporter light, replicate 1","firefly reporter light, replicate 2","Renilla control light, replicate 1","Renilla control light, replicate 2",call,Gene,PubChem SID
1.85e5,1.37e5,9.01e5,1.41e6,inactive,CG13484 (GeneID 39560),SID104189818
2.23e5,3.30e5,4.04e5,4.54e5,inactive,CG13484 (GeneID 39560),SID104205207
57045,38700,5.13e5,3.59e5,inactive,CG1971 (GeneID 43755),SID104195198
5.98e5,1.29e6,8.92e5,1.53e6,inactive,CG1971 (GeneID 43755),SID104206934
80780,90266,9.03e5,7.22e5,inactive,CHOp24 (GeneID 31382),SID104198102
1.39e5,1.84e5,2.03e6,2.06e6,inactive,CG13622 (GeneID 42923),SID104194416
9.38e5,6.14e5,7.51e5,5.45e5,inactive,CG13622 (GeneID 42923),SID104205626
31230,22764,4.52e5,3.47e5,inactive,gzl (GeneID 40791),SID104192309
3.37e5,3.38e5,7.94e5,8.04e5,inactive,gzl (GeneID 40791),SID104205664
1.10e5,57884,6.89e5,4.07e5,inactive,Abcd1 (GeneID 43772),SID104196949
1.40e5,1.22e5,2.02e5,2.96e5,inactive,CG31287 (GeneID 318663),SID104192930
9.63e5,9.21e5,2.43e6,2.66e6,inactive,Nadk1b (GeneID 36507),SID104186756
66798,1.15e5,1.98e6,1.98e6,inactive,Nadk1b (GeneID 36507),SID104186757
8.13e5,7.59e5,1.31e6,1.45e6,inactive,Nadk1b (GeneID 36507),SID104204285
1.09e5,63138,1.19e6,9.69e5,active,opm (GeneID 32435),SID104199933
4.71e5,5.84e5,1.64e6,1.50e6,inactive,opm (GeneID 32435),SID104201688
4.07e5,3.97e5,5.22e5,5.22e5,inactive,opm (GeneID 32435),SID104208119
1.08e5,1.03e5,1.08e6,8.31e5,inactive,CG34450 (GeneID 5740775),SID104197614
6.67e5,9.23e5,8.95e5,1.02e6,inactive,CG34450 (GeneID 5740775),SID104203631
48609,1.05e5,1.77e6,1.15e6,inactive,CG1172 + Or83a,SID104192149
98618,1.43e5,1.51e6,2.65e6,inactive,Jon99Fii (GeneID 43621),SID104195222
6.61e5,7.73e5,1.79e6,1.27e6,inactive,CG40160 (GeneID 3354965),SID104215332
2.99e5,4.36e5,1.77e6,1.78e6,inactive,SIFa (GeneID 3346202),SID104184272
6.99e5,4.34e5,1.70e6,1.68e6,inactive,Hsc70-5 (GeneID 36583),SID104187234
2.89e5,2.20e5,5.53e5,4.81e5,inactive,Hsc70-5 (GeneID 36583),SID104202990
1.96e5,2.72e5,1.72e6,1.82e6,inactive,Tg (GeneID 34093),SID104182839
5.42e5,6.04e5,1.85e6,1.78e6,inactive,Tg (GeneID 34093),SID104207592
3.80e5,3.51e5,9.71e5,1.01e6,inactive,Dek (GeneID 47906),SID104187210
5.75e5,2.98e5,5.05e5,4.23e5,inactive,Dek (GeneID 47906),SID104202948
7.45e5,8.44e5,7.87e5,8.52e5,inactive,CG9083 + Tpc2,SID104184417
6.71e5,7.83e5,9.22e5,1.09e6,inactive,CG9083 + Tpc2,SID104204068
52685,63649,7.21e5,9.26e5,inactive,dre4 (GeneID 38248),SID104188506
